Assay results as given in EP0676203A1, “Pharmaceutical compositions of antiglucocorticoid compounds for treating or preventing symptoms of spontaneous or narcotic-induced withdrawal” (ROUSSEL UCLAF, priority 1994, dated 1995).
The name of at least one read-out is uncertain.

System: souris dépendantes à la morphine
Experiment: Naloxone-precipitated withdrawal syndrome (jumping) in morphine-treated mice, acute oral treatment 24 h before withdrawal
Type: in vivo
Excerpt: Les expériences ont été réalisées chez des souris mâles Swiss normales ou surrénalectomisées (Charles River, France) d'un poids corporel compris entre 20 et 25 g. Durant les essais, les animaux ont eu libre accès à la nourriture et à l'eau de boisson. Le nombre d'animaux par groupe est de 10 à 13 souris.
Les antiglucocorticoïdes : • AG1 (17β-hydroxy 11β-(4-diméthylaminophényl) 17α-(prop-1-ynyl) estra 4,9-dièn-3-one), • AG2 (17β-hydroxy 10β-[(4-méthylphényl) méthyl] 17α-(prop-1-ynyl) estra 4,9-dièn-3-one), • AG3 (γ-lactone de l'acide 17β-hydroxy 11β-(4-diméthylaminophényl) 21-méthylène 3-oxo 19-nor 17α-(pregna 4,9-dièn-21-carboxylique) • AG4 10β-benzyl 17β-hydroxy 17α-(prop-1-ynyl) estra 4,9(11)-dièn-3-one • AG5 11β-[4-(diméthylamino) phényl] 17α-hydroxy 17β-(3-hydroxypropyl) 13α-méthyl gona-4,9-dièn-3-one (onapristone) • AG6 11β-[4-(diméthylamino) phényl] 17β-hydroxy 17α-(3-hydroxy-1-propényl) estra-4,9-dièn-3-one (lilopristone) • AG7 17α-acétoxy 11β-[4-(diméthylamino) phényl] 19-nor pregna 4,9-dièn-3,20-dione • et l'antiprogestérone AP1 (17R 11β-[4-(méthylthio) phényl] spiro (estra-4,9-dièn-17,2'(5'H) furan) 3-one décrit dans WO 87/05908 ex. 3) ont été mis en suspension dans de la méthyl cellusose à 0,5 % et administrés par voie orale (p.o). La morphine a été mise en solution dans du sérum physiologique et administrée par voie sous-cutanée (s.c). Enfin, le chlorhydrate de naloxone a été solubilisé dans de l'eau distillée et injecté par voie intra-péritonéale.
Tous les produits ont été administrées à l'animal sous un volume de 25 ml/kg.
Le premier jour (J1), les animaux ont reçu 5 injections sous-cutanées avec des doses croissantes de morphine réparties dans la matinée et sur le début de l'après midi, à une heure d'intervalle. Les 3 jours suivants (J2, J3, J4), ces mêmes animaux ont été traités le matin par deux administrations de la dose maximale utilisée au jour 1.
Le composé AG1 (20 et 100 mg/kg), le composé AG3 (100 mg/kg), le composé AG2 (100 mg/kg), le compoé AG4 (100 mg/kg), le composé AG5 (200 mg/kg), le composé AG6 (100 mg/kg), le composé AG7 (20 et 100 mg/kg) et l'antiprogestérone AP1 (100 mg/kg) ont été administrés sous forme d'un traitement aigü réalisé 24 heures (J3) avant le sevrage par le chlorhydrate de naloxone (J4).
La technique utilisée s'inspire de celle décrite par Way et al. J. Pharmacol. Exp. Ther. (1969), 167 : 1-8 et Huidobro et Maggiolo Acta Physiol. Pharmacol. Latinoam. (1961), 11 : 201-9. Ainsi, l'administration réitérée d'un morphinique induit un phénomène de dépendance physique qui peut être facilement mis en évidence par la précipitation d'un syndrome de sevrage à l'aide d'un antagoniste opiacé tel que la naloxone. […]

[1] = Morphine 799 mg/kg s.c + compound 100 mg/kg p.o single dose 24 h before naloxone 100 mg/kg ip
[2] = compound alone, 100 mg/kg p.o single dose 24 h before naloxone, no morphine, normal mice

Row | Structure (SMILES) | Nombre de sauts/10 minutes (m ± esm) [1] | Nombre de sauts/10 minutes (m ± esm) [2]
1 | CC#CC1(O)CCC2C3CCC4=CC(=O)CCC4(Cc4ccccc4)C3=CCC21C (stereo not drawn) [AG4, 10β-benzyl 17β-hydroxy 17α-(prop-1-ynyl) estra 4,9(11)-dièn-3-one] | 96 ± 13 NS sauts/10 minutes | 0 ± 0 sauts/10 minutes
2 | CC#CC1(O)CCC2C3CCC4=CC(=O)CCC4(Cc4ccc(C)cc4)C3=CCC21C (stereo not drawn) [AG2, 17β-hydroxy 10β-[(4-méthylphényl)méthyl] 17α-(prop-1-ynyl) estra 4,9-dièn-3-one] | 100 ± 13 NS sauts/10 minutes | 2 ± 1 sauts/10 minutes
